Taken from: PubChem BioAssay AID602203 (INSERM, 2012)

Aim: 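Confirming genes that raise or lower cisplatin-induced death in A549 cells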 (follow-up of hits)
Cell system: human A549 lung cancer cells
Knock-down reagent: siRNA pair against human genes
Conditions: cisplatin at a dose killing half of control-siRNA cells, given 48 h after transfection
Measurement: 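Two siRNAs per gene scored +1 protective, -1 sensitizing, 0 if toxic by LDH or growth-reducing by WST-1; cisplatin given 48 h later at 50% control kill; scores summed, mean death shift versus control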
Direction: summed siRNA score for cisplatin death: higher = more siRNAs reduced cisplatin-induced cell death; change in cisplatin death versus control: higher = fewer cells died than in control
Hit rule: In these data the active calls have summed siRNA score for cisplatin death at about -3 or lower, or at about 3 or higher
Here is one part, drawn at random, of 999 deposited reagents. 85 of all reagents (8.5%) were called active. 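Unclear how single-siRNA scores of -1, 0 or +1 give the printed -4 to 4 range; calls lie near -3 or 3 and beyond.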 Reagent sequences are not shown. The record does not give: the amount of reagent, the time to read-out, the dose of the treatment.

Target gene	summed siRNA score for cisplatin death	change in cisplatin death versus control (percentage points)	call
CXCL16	-2		inactive
COX5B	3	10.6	active
CD244	1		inactive
TPX2	0		inactive
LOC389958	0		inactive
RAB40A	3	6.47	active
LOC440778	2		inactive
ARL4AP1	0		inactive
FPR1	-1		inactive
CEACAM4	2		inactive
MYH14	-1		inactive
PRIM1	-1		inactive
PRSS55	0		inactive
BCAN	0		inactive
CDPF1	-1		inactive
ADCYAP1R1	-1		inactive
LOC149224	2		inactive
IKBIP	-2		inactive
PTK2	1		inactive
GLRX3	1		inactive
OR51I2	0		inactive
LOC391426	2		inactive
TMEM131	1		inactive
MMP16	0		inactive
IRAG2	-3	-13.7	active
MTTP	-1		inactive
TFF1	-3	-14	active
ZNF664	1		inactive
OCLM (retired record)	0		inactive
LGI3	1		inactive
REEP4	0		inactive
NR1I3	0		inactive
MBD1	0		inactive
LOC152078	2		inactive
BTN2A1	-1		inactive
SPSB3	1		inactive
ATP8B2	1		inactive
NFYC	0		inactive
ERV3-1	0		inactive
GRB2	-1		inactive
CGGBP1	0		inactive
ADA	-2		inactive
ADORA2B	0		inactive
FLJ10707	-1		inactive
HIRIP3	-4	-10.3	active
TGM5	-1		inactive
GGT7	1		inactive
MRPL43	1		inactive
LIPC	-3	-13.8	active
SEC23A	0		inactive
SLCO2A1	1		inactive
SMIM32	0		inactive
BEND2	0		inactive
SLC52A1	2		inactive
SLC5A2	1		inactive
SHD	-1		inactive
LOC442265	-1		inactive
SLC44A5	0		inactive
DLGAP5	-1		inactive
LOC338734	-1		inactive
SYT10	0		inactive
PCDHGA12	-1		inactive
IRF8	2		inactive
MYF6	-1		inactive
MBOAT2	0		inactive
SUDS3	-2		inactive
FBP1	-2		inactive
POFUT1	-2		inactive
NANOS1	-3	-12	active
FSAF1	-2		inactive
TINCR	-1		inactive
DPP10-AS1	1		inactive
LOC440855	1		inactive
ZNF75D	-1		inactive
HSD17B14	0		inactive
LOC391817	1		inactive
PKN2	-2		inactive
LOC440445	-1		inactive
ZBTB25	-2		inactive
TMEM132B	-1		inactive
PLTP	-2		inactive
MED26	-2		inactive
JPH3	-1		inactive
LOC285544	-1		inactive
PHTF1	0		inactive
MLXIPL	2		inactive
SP140L	-2		inactive
AMELY	1		inactive
PRSS16	2		inactive
LOC440287	1		inactive
LOC440336	0		inactive
LOC440329	2		inactive
OR2B11	-1		inactive
RFC1	-2		inactive
HLA-DPA1	0		inactive
LOC441968	0		inactive
CRIM1	-2		inactive
LOC441687	0		inactive
SLC7A11	0		inactive
RBKS	0		inactive
PIP5KL1	1		inactive
FFAR2	-2		inactive
COCH	-1		inactive
SOX1	0		inactive
TOB2	1		inactive
LOC440236	-1		inactive
H1-1	0		inactive

4 entries from above, arranged by “summed siRNA score for cisplatin death”, ascending.
Target gene	summed siRNA score for cisplatin death	change in cisplatin death versus control (percentage points)	call
ADA	-2		inactive
FLJ10707	-1		inactive
CGGBP1	0		inactive
ADORA2B	0		inactive
